No constants are given. Whether binding was seen depends on the method and setting. Some entries that bind do so weakly or less than the wild type. For part of these data: Tags and fused reporters may be left off the sequences shown.

Sequences of proteins named here, by UniProt entry; tags and fusion partners are left off.
UniProt P60520: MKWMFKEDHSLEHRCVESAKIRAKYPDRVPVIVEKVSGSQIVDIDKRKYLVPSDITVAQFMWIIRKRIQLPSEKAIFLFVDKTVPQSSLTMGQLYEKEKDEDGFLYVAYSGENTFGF

Experiment [1] has as its target T1, biotinylated AviTag-His6-NCOA4^383−522-MBP (human), Q13772.
T1 chain: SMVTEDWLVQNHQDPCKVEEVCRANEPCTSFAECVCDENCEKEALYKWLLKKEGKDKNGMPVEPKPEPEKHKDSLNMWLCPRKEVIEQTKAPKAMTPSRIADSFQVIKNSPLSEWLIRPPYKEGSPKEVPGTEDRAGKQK
In words: SEC-MALS; 100 μl of 1 mg/ml protein on a WTC-030 column; 20 mM Tris, 150 mM NaCl, pH 7.5; 0.5 ml/min; both purified. Particulars: remark: other sources report otherwise.

For experiment [2], the target named is monomeric GATE16 (mGATE16) (UniProt P60520). Put plainly: fluorescence polarisation; competition anisotropy: 1.5 μM mGATE16 with 10 nM labeled ATG4B peptide; increasing unlabeled peptide; 20 mM Tris, 150 mM NaCl, pH 7.5; RT; both purified.

B1: biotinylated AviTag-His6-NCOA4^383−522-MBP, Q13772 383-522 (domain or fragment)
chain: SMVTEDWLVQNHQDPCKVEEVCRANEPCTSFAECVCDENCEKEALYKWLLKKEGKDKNGMPVEPKPEPEKHKDSLNMWLCPRKEVIEQTKAPKAMTPSRIADSFQVIKNSPLSEWLIRPPYKEGSPKEVPGTEDRAGKQK
modifications: here or on the partner: biotin on the AviTag (BirA co-expressed); biotin on the AviTag (BirA co-expressed)
On to B1, for which the binding result in experiment [1] is reported as “no binding (tested: 1 mg/ml)”.

Regarding NEPCTSFAECVCDENCEKEA [FAECV peptide (…), unlabeled], the binding entry in experiment [2] was “binds weakly”.

As for TKAPKAMTPSRIADSFQVI [SFQVI peptide (…), unlabeled], the binding result in experiment [2] is on record as “binds weakly”.

The record behind these values is publication PMC12872393, “NCOA4 initiates ferritinophagy by avidly binding GATE16 using two short linear interaction motifs” (Life Science Alliance, 2026).
